Experimental data from PMC5662892.
Results are given in words; binding and its absence hold for the method and conditions named. Some results given as binding are weak or reduced against the parent protein; the word gives no strength. Blank lines part the entries; values can stand above or below the molecule they belong to.

Chains of the proteins cited; added tags and fusions are not shown.
UniProt P22336: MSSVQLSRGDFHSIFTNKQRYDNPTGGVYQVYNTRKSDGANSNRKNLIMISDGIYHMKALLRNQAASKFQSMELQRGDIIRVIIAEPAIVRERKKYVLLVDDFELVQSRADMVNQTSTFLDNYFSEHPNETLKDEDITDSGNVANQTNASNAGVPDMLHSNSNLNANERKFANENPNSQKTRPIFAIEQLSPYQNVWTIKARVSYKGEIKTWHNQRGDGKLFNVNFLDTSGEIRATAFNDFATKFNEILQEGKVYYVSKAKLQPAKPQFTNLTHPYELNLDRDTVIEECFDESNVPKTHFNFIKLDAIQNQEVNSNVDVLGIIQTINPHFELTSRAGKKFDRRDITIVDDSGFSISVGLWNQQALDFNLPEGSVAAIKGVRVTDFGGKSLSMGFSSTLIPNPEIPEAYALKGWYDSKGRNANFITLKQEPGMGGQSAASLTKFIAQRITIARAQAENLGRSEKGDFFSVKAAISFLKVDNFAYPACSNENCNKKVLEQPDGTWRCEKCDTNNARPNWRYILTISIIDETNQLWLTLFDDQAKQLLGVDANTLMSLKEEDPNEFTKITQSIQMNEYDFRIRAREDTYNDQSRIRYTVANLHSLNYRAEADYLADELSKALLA
UniProt P26754: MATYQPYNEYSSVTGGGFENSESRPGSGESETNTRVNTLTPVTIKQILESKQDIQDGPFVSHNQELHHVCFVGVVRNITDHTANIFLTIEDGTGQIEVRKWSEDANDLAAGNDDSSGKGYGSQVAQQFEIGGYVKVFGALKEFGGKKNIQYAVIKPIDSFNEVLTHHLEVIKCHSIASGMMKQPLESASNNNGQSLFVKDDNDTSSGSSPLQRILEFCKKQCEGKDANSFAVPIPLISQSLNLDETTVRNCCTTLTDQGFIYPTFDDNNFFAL
UniProt P26755: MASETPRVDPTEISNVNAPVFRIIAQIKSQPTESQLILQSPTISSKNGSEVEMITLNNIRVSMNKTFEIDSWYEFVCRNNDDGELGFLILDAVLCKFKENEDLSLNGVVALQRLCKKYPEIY

What was measured:
[1] = target: Rfa1 (subunit of replication protein A), CBP-TEV-Rfa1 (budding yeast) (UniProt P22336); assay: co-purification (tandem affinity purification, then gel filtration); RPA subunits co-expressed in yeast; whole-cell extract on calmodulin affinity resin with 2 mM CaCl2 (CBP on Rfa1), eluted with 2 mM EDTA and 2 mM EGTA; then anti-Flag M2 affinity gel (3×Flag on Rfa2), eluted with 0.5 mg/ml 3×Flag peptide; then Superdex 200 10/300 GL; binding buffer 25 mM Tris-HCl pH 7.2, 10% glycerol, 1 mM DTT, 500 mM NaCl; 4°C; Coomassie-stained gel
[2] = target: Rfa2 (subunit of replication protein A), Rfa2-3×FLAG-Avi, biotinylated (budding yeast) (UniProt P26754); assay: as above
[3] = target: T1, Orc1 (subunit of the origin recognition complex), Avi-CBP-Orc1, biotinylated (budding yeast) (UniProt P54784); assay: co-purification (calmodulin affinity purification); ORC subunits co-expressed in yeast; purified on calmodulin affinity resin by the CBP tag on Orc1, protocol of Frigola et al. (2013); Coomassie-stained gel
T1 sequence (chain, biotin on the Avi-tag (biotinylated by NLS-BirA in vivo, about 90%)): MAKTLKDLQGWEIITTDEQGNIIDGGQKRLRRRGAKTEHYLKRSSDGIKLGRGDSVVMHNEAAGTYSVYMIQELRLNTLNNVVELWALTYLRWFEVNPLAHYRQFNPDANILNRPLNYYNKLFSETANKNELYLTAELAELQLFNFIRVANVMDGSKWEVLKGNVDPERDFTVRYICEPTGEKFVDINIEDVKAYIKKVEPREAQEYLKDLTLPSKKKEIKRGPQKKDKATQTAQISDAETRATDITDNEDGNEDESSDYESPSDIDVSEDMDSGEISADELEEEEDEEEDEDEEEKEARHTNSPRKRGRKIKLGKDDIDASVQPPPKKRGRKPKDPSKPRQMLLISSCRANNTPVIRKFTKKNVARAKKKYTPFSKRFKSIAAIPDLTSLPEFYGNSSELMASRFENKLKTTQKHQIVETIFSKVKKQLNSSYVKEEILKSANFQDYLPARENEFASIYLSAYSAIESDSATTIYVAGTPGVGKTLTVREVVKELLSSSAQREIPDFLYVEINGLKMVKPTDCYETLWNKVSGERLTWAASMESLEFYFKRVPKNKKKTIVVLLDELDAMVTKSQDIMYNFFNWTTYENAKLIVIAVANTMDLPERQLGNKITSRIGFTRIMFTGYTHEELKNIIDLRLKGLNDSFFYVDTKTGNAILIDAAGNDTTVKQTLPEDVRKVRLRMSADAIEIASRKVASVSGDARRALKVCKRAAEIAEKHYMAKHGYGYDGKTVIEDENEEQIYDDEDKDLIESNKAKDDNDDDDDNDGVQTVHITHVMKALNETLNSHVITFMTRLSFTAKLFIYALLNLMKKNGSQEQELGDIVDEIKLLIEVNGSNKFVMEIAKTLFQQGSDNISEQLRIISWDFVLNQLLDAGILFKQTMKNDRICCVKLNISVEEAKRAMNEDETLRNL

binding [1]: binds
binding [2]: binds
Molecule: Rfa3 (subunit of replication protein A) (from UniProt P26755 1-122)

binding [3]: binds
B2: Orc5 (subunit of the origin recognition complex) (protein, UniProt P50874 1-479)
chain: MNVTTPEVAFREYQTNCLASYISADPDITPSNLILQGYSGTGKTYTLKKYFNANPNLHAVWLEPVELVSWKPLLQAIARTVQYKLKTLYPNIPTTDYDPLQVEEPFLLVKTLHNIFVQYESLQEKTCLFLILDGFDSLQDLDAALFNKYIKLNELLPKDSKINIKFIYTMLETSFLQRYSTHCIPTVMFPRYNVDEVSTILVMSRCGELMEDSCLRKRIIEEQITDCTDDQFQNVAANFIHLIVQAFHSYTGNDIFALNDLIDFKWPKYVSRITKENIFEPLALYKSAIKLFLSTDDNLSENGQGESAITTNRDDLENSQTYDLSIISKYLLIASYICSYLEPRYDASIFSRKTRIIQGRAAYGRRKKKEVNPRYLQPSLFAIERLLAIFQAIFPIQGKAESGSLSALREESLMKANIEVFQNLSELHTLKLIATTMNKNIDYLSPKVRWKVNVPWEIIKEISESVHFNISDYFSDIHE

binding [3]: binds
B3: Orc4 (subunit of the origin recognition complex) (protein, UniProt P54791 1-529)
chain: MTISEARLSPQVNLLPIKRHSNEEVEETAAILKKRTIDNEKCKDSDPGFGSLQRRLLQQLYGTLPTDEKIIFTYLQDCQQEIDRIIKQSIIQKESHSVILVGPRQSYKTYLLDYELSLLQQSYKEQFITIRLNGFIHSEQTAINGIATQLEQQLQKIHGSEEKIDDTSLETISSGSLTEVFEKILLLLDSTTKTRNEDSGEVDRESITKITVVFIFDEIDTFAGPVRQTLLYNLFDMVEHSRVPVCIFGCTTKLNILEYLEKRVKSRFSQRVIYMPQIQNLDDMVDAVRNLLTVRSEISPWVSQWNETLEKELSDPRSNLNRHIRMNFETFRSLPTLKNSIIPLVATSKNFGSLCTAIKSCSFLDIYNKNQLSNNLTGRLQSLSDLELAILISAARVALRAKDGSFNFNLAYAEYEKMIKAINSRIPTVAPTTNVGTGQSTFSIDNTIKLWLKKDVKNVWENLVQLDFFTEKSAVGLRDNATAAFYASNYQFQGTMIPFDLRSYQMQIILQELRRIIPKSNMYYSWTQL

The next lines start with the molecule.

Molecule: Rfa2 (subunit of replication protein A), Rfa2-3×FLAG-Avi, biotinylated (from UniProt P26754 1-273)
binding [1]: binds

B1: Orc3 (subunit of the origin recognition complex) (protein, UniProt P54790 1-616)
chain: MSDLNQSKKMNVSEFADAQRSHYTVYPSLPQSNKNDKHIPFVKLLSGKESEVNVEKRWELYHQLHSHFHDQVDHIIDNIEADLKAEISDLLYSETTQKRRCFNTIFLLGSDSTTKIELKDESSRYNVLIELTPKESPNVRMMLRRSMYKLYSAADAEEHPTIKYEDINDEDGDFTEQNNDVSYDLSLVENFKRLFGKDLAMVFNFKDVDSINFNTLDNFIILLKSAFKYDHVKISLIFNINTNLSNIEKNLRQSTIRLLKRNYHKLDVSSNKGFKYGNQIFQSFLDTVDGKLNLSDRFVEFILSKMANNTNHNLQLLTKMLDYSLMSYFFQNAFSVFIDPVNVDFLNDDYLKILSRCPTFMFFVEGLIKQHAPADEILSLLTNKNRGLEEFFVEFLVRENPINGHAKFVARFLEEELNITNFNLIELYHNLLIGKLDSYLDRWSACKEYKDRLHFEPIDTIFQELFTLDNRSGLLTQSIFPSYKSNIEDNLLSWEQVLPSLDKENYDTLSGDLDKIMAPVLGQLFKLYREANMTINIYDFYIAFRETLPKEEILNFIRKDPSNTKLLELAETPDAFDKVALILFMQAIFAFENMGLIKFQSTKSYDLVEKCVWRGI
binding [3]: binds
